Data from PMC8833133.
These are yes or no findings as the source states them, for the method shown. In cells and extracts the contact can be indirect. Some entries that bind do so weakly or less than the wild type.

Molecular target: T1, Sorbin and SH3 domain-containing protein 2 (mouse (endogenous in mouse myocardial tissue)) (UniProt Q3UTJ2)
T1 sequence: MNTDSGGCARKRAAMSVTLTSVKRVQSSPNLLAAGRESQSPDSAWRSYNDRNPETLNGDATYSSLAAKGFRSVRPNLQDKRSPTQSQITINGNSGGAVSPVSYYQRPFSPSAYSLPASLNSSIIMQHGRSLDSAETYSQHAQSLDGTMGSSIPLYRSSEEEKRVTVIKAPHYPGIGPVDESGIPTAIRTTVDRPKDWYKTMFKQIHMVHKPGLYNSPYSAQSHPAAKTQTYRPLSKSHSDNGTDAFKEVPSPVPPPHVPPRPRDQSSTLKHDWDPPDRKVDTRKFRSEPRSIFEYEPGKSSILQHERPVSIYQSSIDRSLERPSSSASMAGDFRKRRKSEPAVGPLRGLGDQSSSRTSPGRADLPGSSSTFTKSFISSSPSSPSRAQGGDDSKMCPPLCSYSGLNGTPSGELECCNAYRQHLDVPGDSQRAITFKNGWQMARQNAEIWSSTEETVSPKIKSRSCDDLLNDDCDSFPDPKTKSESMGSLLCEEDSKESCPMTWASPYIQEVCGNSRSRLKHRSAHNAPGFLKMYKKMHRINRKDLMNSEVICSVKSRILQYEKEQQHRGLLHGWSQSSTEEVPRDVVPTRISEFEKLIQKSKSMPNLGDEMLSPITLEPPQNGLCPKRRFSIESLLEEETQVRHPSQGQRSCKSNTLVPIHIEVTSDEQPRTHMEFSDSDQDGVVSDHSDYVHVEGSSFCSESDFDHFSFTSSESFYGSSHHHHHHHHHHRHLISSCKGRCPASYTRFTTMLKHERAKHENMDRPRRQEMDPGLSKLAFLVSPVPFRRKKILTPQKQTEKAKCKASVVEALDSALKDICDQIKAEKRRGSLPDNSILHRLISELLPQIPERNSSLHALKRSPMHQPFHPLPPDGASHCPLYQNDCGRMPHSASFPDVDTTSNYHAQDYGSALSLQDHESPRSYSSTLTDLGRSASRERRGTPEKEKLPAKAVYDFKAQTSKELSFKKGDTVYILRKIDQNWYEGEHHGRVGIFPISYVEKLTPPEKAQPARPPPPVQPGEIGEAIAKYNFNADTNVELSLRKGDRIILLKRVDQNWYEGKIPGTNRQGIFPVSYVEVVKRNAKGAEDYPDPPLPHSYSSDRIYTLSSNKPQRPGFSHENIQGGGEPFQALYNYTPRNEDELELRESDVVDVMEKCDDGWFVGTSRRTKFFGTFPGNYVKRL
Test: co-IP; heart tissue lysate; Pierce Classic Magnetic IP/Co-IP Kit; IP with rabbit polyclonal anti-SORBS2 or anti-YWHAQ, overnight; immunoblot with anti-SORBS2 and anti-YWHAQ

binding: binds
B1: YWHAQ (protein, UniProt P68254 1-245)
chain: MEKTELIQKAKLAEQAERYDDMATCMKAVTEQGAELSNEERNLLSVAYKNVVGGRRSAWRVISSIEQKTDTSDKKLQLIKDYREKVESELRSICTTVLELLDKYLIANATNPESKVFYLKMKGDYFRYLAEVACGDDRKQTIENSQGAYQEAFDISKKEMQPTHPIRLGLALNFSVFYYEILNNPELACTLAKTAFDEAIAELDTLNEDSYKDSTLIMQLLRDNLTLWTSDSAGEECDAAEGAEN
